B1: DDX24 (protein, UniProt Q9GZR7 1-859, looked up)
ATP-dependent RNA helicase …: MKLKDTKSRPKQSSCGKFQTKGIKVVGKWKEVKIDPNMFADGQMDDLVCFEELTDYQLVSPAKNPSSLFSKEAPKRKAQAVSEEEEEEEGKSSSPKKKIKLKKSKNVATEGTSTQKEFEVKDPELEAQGDDMVCDDPEAGEMTSENLVQTAPKKKKNKGKKGLEPSQSTAAKVPKKAKTWIPEVHDQKADVSAWKDLFVPRPVLRALSFLGFSAPTPIQALTLAPAIRDKLDILGAAETGSGKTLAFAIPMIHAVLQWQKRNAAPPPSNTEAPPGETRTEAGAETRSPGKAEAESDALPDDTVIESEALPSDIAAEARAKTGGTVSDQALLFGDDDAGEGPSSLIREKPVPKQNENEEENLDKEQTGNLKQELDDKSATCKAYPKRPLLGLVLTPTRELAVQVKQHIDAVARFTGIKTAILVGGMSTQKQQRMLNRRPEIVVATPGRLWELIKEKHYHLRNLRQLRCLVVDEADRMVEKGHFAELSQLLEMLNDSQYNPKRQTLVFSATLTLVHQAPARILHKKHTKKMDKTAKLDLLMQKIGMRGKPKVIDLTRNEATVETLTETKIHCETDEKDFYLYYFLMQYPGRSLVFANSISCIKRLSGLLKVLDIMPLTLHACMHQKQRLRNLEQFARLEDCVLLATDVAARGLDIPKVQHVIHYQVPRTSEIYVHRSGRTARATNEGLSLMLIGPEDVINFKKIYKTLKKDEDIPLFPVQTKYMDVVKERIRLARQIEKSEYRNFQACLHNSWIEQAAAALEIELEEDMYKGGKADQQEERRRQKQMKVLKKELRHLLSQPLFTESQKTKYPTQSGKPPLLVSAPSKSESALSCLSKQKKKKTKKPKEPQPEQPQPSTSAN
B2: SLC25A13 (protein, UniProt Q9UJS0 2-675, looked up)
Electrogenic …: AAAKVALTKRADPAELRTIFLKYASIEKNGEFFMSPNDFVTRYLNIFGESQPNPKTVELLSGVVDQTKDGLISFQEFVAFESVLCAPDALFMVAFQLFDKAGKGEVTFEDVKQVFGQTTIHQHIPFNWDSEFVQLHFGKERKRHLTYAEFTQFLLEIQLEHAKQAFVQRDNARTGRVTAIDFRDIMVTIRPHVLTPFVEECLVAAAGGTTSHQVSFSYFNGFNSLLNNMELIRKIYSTLAGTRKDVEVTKEEFVLAAQKFGQVTPMEVDILFQLADLYEPRGRMTLADIERIAPLEEGTLPFNLAEAQRQKASGDSARPVLLQVAESAYRFGLGSVAGAVGATAVYPIDLVKTRMQNQRSTGSFVGELMYKNSFDCFKKVLRYEGFFGLYRGLLPQLLGVAPEKAIKLTVNDFVRDKFMHKDGSVPLAAEILAGGCAGGSQVIFTNPLEIVKIRLQVAGEITTGPRVSALSVVRDLGFFGIYKGAKACFLRDIPFSAIYFPCYAHVKASFANEDGQVSPGSLLLAGAIAGMPAASLVTPADVIKTRLQVAARAGQTTYSGVIDCFRKILREEGPKALWKGAGARVFRSSPQFGVTLLTYELLQRWFYIDFGGVKPMGSEPVPKSRINLPAPNPDHVGGYKLAVATFAGIENKFGLYLPLFKPSVSTSKAIGGGP
B3: LRIF1 (protein, UniProt Q5T3J3 1-769, looked up)
Ligand-dependent nuclear …: MSNNLRRVFLKPAEENSGNASRCVSGCMYQVVQTIGSDGKNLLQLLPIPKSSGNLIPLVQSSVMSDALKGNTGKPVQVTFQTQISSSSTSASVQLPIFQPASSSNYFLTRTVDTSEKGRVTSVGTGNFSSSVSKVQSHGVKIDGLTMQTFAVPPSTQKDSSFIVVNTQSLPVTVKSPVLPSGHHLQIPAHAEVKSVPASSLPPSVQQKILATATTSTSGMVEASQMPTVIYVSPVNTVKNVVTKNFQNIYPKPVTEIAKPVILNTTQIPKNVATETQLKGGQHSQAAPVKWIFQDNLQPFTPSLVPVKSSNNVASKILKTFVDRKNLGDNTINMPPLSTIDPSGTRSKNMPIKDNALVMFNGKVYLLAKKGTDVLPSQIDQQNSVSPDTPVRKDTLQTVSSSPVTEISREVVNIVLAKSKSSQMETKSLSNTQLASMANLRAEKNKVEKPSPSTTNPHMNQSSNYLKQSKTLFTNPIFPVGFSTGHNAPRKVTAVIYARKGSVLQSIEKISSSVDATTVTSQQCVFRDQEPKIHNEMASTSDKGAQGRNDKKDSQGRSNKALHLKSDAEFKKIFGLTKDLRVCLTRIPDHLTSGEGFDSFSSLVKSGTYKETEFMVKEGERKQQNFDKKRKAKTNKKMDHIKKRKTENAYNAIINGEANVTGSQLLSSILPTSDVSQHNILTSHSKTRQEKRTEMEYYTHEKQEKGTLNSNAAYEQSHFFNKNYTEDIFPVTPPELEETIRDEKIRRLKQVLREKEAALEEMRKKMHQK
B4: SLC25A11 (protein, UniProt Q02978 2-314, looked up)
Mitochondrial …: AATASAGAGGIDGKPRTSPKSVKFLFGGLAGMGATVFVQPLDLVKNRMQLSGEGAKTREYKTSFHALTSILKAEGLRGIYTGLSAGLLRQATYTTTRLGIYTVLFERLTGADGTPPGFLLKAVIGMTAGATGAFVGTPAEVALIRMTADGRLPADQRRGYKNVFNALIRITREEGVLTLWRGCIPTMARAVVVNAAQLASYSQSKQFLLDSGYFSDNILCHFCASMISGLVTTAASMPVDIAKTRIQNMRMIDGKPEYKNGLDVLFKVVRYEGFFSLWKGFTPYYARLGPHTVLTFIFLEQMNKAYKRLFLSG
B5: SPOUT1 (protein, UniProt Q5T280 1-376, looked up)
28S rRNA …: MAERGRKRPCGPGEHGQRIEWRKWKQQKKEEKKKWKDLKLMKKLERQRAQEEQAKRLEEEEAAAEKEDRGRPYTLSVALPGSILDNAQSPELRTYLAGQIARACAIFCVDEIVVFDEEGQDAKTVEGEFTGVGKKGQACVQLARILQYLECPQYLRKAFFPKHQDLQFAGLLNPLDSPHHMRQDEESEFREGIVVDRPTRPGHGSFVNCGMKKEVKIDKNLEPGLRVTVRLNQQQHPDCKTYHGKVVSSQDPRTKAGLYWGYTVRLASCLSAVFAEAPFQDGYDLTIGTSERGSDVASAQLPNFRHALVVFGGLQGLEAGADADPNLEVAEPSVLFDLYVNTCPGQGSRTIRTEEAILISLAALQPGLIQAGARHT
B6: RPS10P5 (protein, UniProt Q9NQ39 1-176, looked up)
Putative ribosomal protein …: MLMPKKNRIAIHELLFKEGVMVAKKDVHMPKHPELADKNVPNLHVMKAMQSLKSRGCVKEQFAWRHFYWYLTNEGSQYLRDYLHLPPEIVPATLHLPPEIVPATLHRSRPETGRPRPKGLEGKRPARLTRREADRDTYRRCSVPPGADKKAEAGAGSATEFQFRGRCGRGRGQPPQ
B7: CCDC137 (protein, UniProt Q6PK04 1-289, looked up)
Coiled-coil domain-containing …: MAGAGRGAAVSRVQAGPGSPRRARGRQQVQPLGKQRPAPWPGLRSKEKKKVNCKPKNQDEQEIPFRLREIMRSRQEMKNPISNKKRKKAAQVTFRKTLEKEAKGEEPDIAVPKFKQRKGESDGAYIHRMQQEAQHVLFLSKNQAIRQPEVQAAPKEKSEQKKAKKAFQKRRLDKVRRKKEEKAADRLEQELLRDTVKFGEVVLQPPELTARPQRSVSKDQPGRRSQMLRMLLSPGGVSQPLTASLARQRIVEEERERAVQAYRALKQRQQQLHGERPHLTSRKKPEPQL
B8: CWC22 (protein, UniProt Q9HCG8 1-908, looked up)
Pre-mRNA-splicing factor …: MKSSVAQIKPSSGHDRRENLNSYQRNSSPEDRYEEQERSPRDRDYFDYSRSDYEHSRRGRSYDSSMESRNRDREKRRERERDTDRKRSRKSPSPGRRNPETSVTQSSSAQDEPATKKKKDELDPLLTRTGGAYIPPAKLRMMQEQITDKNSLAYQRMSWEALKKSINGLINKVNISNISIIIQELLQENIVRGRGLLSRSVLQAQSASPIFTHVYAALVAIINSKFPQIGELILKRLILNFRKGYRRNDKQLCLTASKFVAHLINQNVAHEVLCLEMLTLLLERPTDDSVEVAIGFLKECGLKLTQVSPRGINAIFERLRNILHESEIDKRVQYMIEVMFAVRKDGFKDHPIILEGLDLVEEDDQFTHMLPLEDDYNPEDVLNVFKMDPNFMENEEKYKAIKKEILDEGDTDSNTDQDAGSSEEDEEEEEEEGEEDEEGQKVTIHDKTEINLVSFRRTIYLAIQSSLDFEECAHKLLKMEFPESQTKELCNMILDCCAQQRTYEKFFGLLAGRFCMLKKEYMESFEGIFKEQYDTIHRLETNKLRNVAKMFAHLLYTDSLPWSVLECIKLSEETTTSSSRIFVKIFFQELCEYMGLPKLNARLKDETLQPFFEGLLPRDNPRNTRFAINFFTSIGLGGLTDELREHLKNTPKVIVAQKPDVEQNKSSPSSSSSASSSSESDSSDSDSDSSDSSSESSSEESDSSSISSHSSASANDVRKKGHGKTRSKEVDKLIRNQQTNDRKQKERRQEHGHQETRTERERRSEKHRDQNSSGSNWRDPITKYTSDKDVPSERNNYSRVANDRDQEMHIDLENKHGDPKKKRGERRNSFSENEKHTHRIKDSENFRRKDRSKSKEMNRKHSGSRSDEDRYQNGAERRWEKSSRYSEQSRESKKNQDRRREKSPAKQK

These molecules were tested on BAF complex subunits and histone proteins (assay: Mass spectrometry proteomics of purified HA-SS18 WT and HA-SS18-SSX1 complexes (Tables 5A-5E)). Settings: HA-SS18SSX1_CHR_peptides; total peptides of the identified protein.
Parameters: species or system human

| Molecule | Total |
| --- | --- |
| B1 | 2 |
| B2 | 2 |
| B3 | 2 |
| B4 | 2 |
| B5 | 2 |
| B6 | 2 |
| B7 | 2 |
| B8 | 2 |

Same assay, conditions: HA-SS18SSX1_CHR_peptides; unique peptides of the identified protein

| Molecule | Unique |
| --- | --- |
| B1 | 2 |
| B2 | 2 |
| B3 | 2 |
| B4 | 2 |
| B5 | 2 |
| B6 | 2 |
| B7 | 2 |
| B8 | 2 |

Same assay, conditions: HA-SS18SSX1_NE_peptides: protein co-purified with HA-SS18-SSX1 BAF complexes from soluble nuclear extract (NE), HEK-293T cells

| Molecule | Total (peptides) | Unique (peptides) |
| --- | --- | --- |
| B1 | 2 | 2 |

Same assay, conditions: HA-SS18SSX1 purification, NE (soluble nuclear extract) fraction, HEK-293T; peptides per identified protein

| Molecule | Total (total peptides) | Unique (unique peptides) |
| --- | --- | --- |
| B2 | 34 | 23 |
| B4 | 11 | 11 |
| B5 | 9 | 6 |

Same assay, conditions: HA-SS18WT_CHR_peptides: HA-SS18 WT purification from nuclease-treated solubilized chromatin (CHR), HEK-293T; label = protein identified

| Molecule | Total (peptides) | Unique (peptides) |
| --- | --- | --- |
| B1 | 3 | 3 |
| B2 | 4 | 4 |

Same assay, conditions: HA-SS18WT_CHR_peptides: protein identified in HA-SS18 WT BAF complex purification from nuclease-treated solubilized chromatin (CHR), HEK-293T

| Molecule | Total (total peptides) | Unique (unique peptides) |
| --- | --- | --- |
| B3 | 1 | 1 |
| B5 | 1 | 1 |
| B6 | 1 | 1 |
| B7 | 1 | 1 |

Same assay, conditions: HA-SS18WT_NE_peptides: HA-SS18 WT complexes purified from nuclear extract (NE), HEK-293T; label = protein identified (Gene Symbol)

| Molecule | Total (peptides) | Unique (peptides) |
| --- | --- | --- |
| B1 | 4 | 4 |
| B2 | 24 | 22 |
| B4 | 13 | 13 |
| B5 | 9 | 5 |
